Values quoted from earlier work in patent US20220079961A1, “NASAL SPRAY FORMULATIONS USING BOTANICALS, STEROIDS ORGANOSILANE QUATERNARIES, POLYOL STABILIZING AGENTS AND NONIONIC SURFACTANT AS ANTIMICROBIALS, ANTIVIRALS AND BIOCIDES TO PROTECT THE CELLS, SKIN AND HAIR OF NASAL PASSAGES” (AP Goldshield LLC, priority 2020, published 2022).
For at least one compound, name, drawing or mass did not settle the structure.

System: hospitalized patients with COVID-19

## C[C@@H]1C[C@H]2[C@@H]3CCC4=CC(=O)C=C[C@]4(C)[C@@]3(F)[C@@H](O)C[C@]2(C)[C@@]1(O)C(=O)CO [dexamethasone]
  reduction of death rates: about one third
